{"source": "patent US12502435B2", "about": "“Metastatic brain tumor targeting peptides” (H. Lee Moffitt Cancer Center and Research Institute, Inc., priority 2018, dated 2025)", "key": {"[1]": {"test_system": "Lung Cancer Brain Metastases cells", "test": "peptide binding to lung cancer brain metastases cells (FIGS. 3, 5, 7B)", "settings": "M1002, M1016, H1915"}, "[2]": {"test_system": "non-malignant brain cells", "test": "peptide binding to non-malignant brain cells (FIGS. 3, 5, 7A)"}, "[3]": {"test_system": "Lung Cancer Brain Metastases Cells (MH1002, MH1016, H1915)", "test": "flow cytometry binding of peptide to lung cancer brain metastases cells", "settings": "compared to primary lung cancer cells and non-targeting peptides", "description": "FIGS. 2A to 2C show binding of BRDT (LBM1) peptide applied to Primary Lung Cancer Cells, Non Malignant Brain Cells, Lung Cancer Brain Metastases Cells (MH1002, MH1016, H1915) analyzed through flow cytometry.\nFIGS. 4A to 4C show binding of LBM2 peptide applied to Primary Lung Cancer Cells, Non Malignant Brain Cells, Lung Cancer Brain Metastases Cells (MH1002, MH1016, H1915) analyzed through flow cytometry.\nFIGS. 6A to 6C show binding AMOT (LBM4) peptide applied to Primary Lung Cancer Cells, Non Malignant Brain Cells, Lung Cancer Brain Metastases Cells (MH1002, MH1016, H1915) analyzed through flow cytometry.\nFor each peptide, as the concentration of peptide goes up, there was a right shift indicating binding to the brain met cells, with minimal binding to the lung cancer primary cells, showing specificity of binding to the brain mets over the lung cancer."}, "[4]": {"test_system": "Primary Lung Cancer Cells", "test": "peptide binding to primary lung cancer cells (FIGS. 3, 5, 7A)"}}, "note": "Part of at least one peptide drawing is inferred or uncertain, most often the ends. Where no end group is shown, it is not given here.", "data": [{"sequence": "HSPTTSLTLSYK [LBM4, HSPTTSLTLSYK]", "values": [{"measurement": "binding to Lung Cancer Brain Metastases cells", "setting": "[1]", "result": "positive binding"}, {"measurement": "binding to non-malignant brain cells", "setting": "[2]", "result": "no binding"}, {"measurement": "flow cytometry shift with peptide applied to lung cancer BM cells", "setting": "[3]", "result": "right shift"}, {"measurement": "binding to primary lung cancer cells", "setting": "[4]", "result": "no binding"}]}]}
